In paper PMC10776482:
Results are given in words; binding and its absence hold for the method and conditions named. Binding seen in cells or lysates may run through a third protein. Some results given as binding are weak or reduced against the parent protein; the word gives no strength. Tags and fused reporters may be left off the sequences shown.

How the values were obtained:
Experiment in all cases: co-IP; GFP-Trap beads with lysates of HEK293T cells transfected with EGFP-NDEL1 WT or variants (24 h); 4 °C, 15-18 h, six washes; co-precipitated LIS1 detected by western blot
[1] = molecular target: T1, EGFP-tagged NDEL1 (wild type, mouse Ndel1 cDNA) (mouse) (UniProt Q9ERR1)
T1 sequence: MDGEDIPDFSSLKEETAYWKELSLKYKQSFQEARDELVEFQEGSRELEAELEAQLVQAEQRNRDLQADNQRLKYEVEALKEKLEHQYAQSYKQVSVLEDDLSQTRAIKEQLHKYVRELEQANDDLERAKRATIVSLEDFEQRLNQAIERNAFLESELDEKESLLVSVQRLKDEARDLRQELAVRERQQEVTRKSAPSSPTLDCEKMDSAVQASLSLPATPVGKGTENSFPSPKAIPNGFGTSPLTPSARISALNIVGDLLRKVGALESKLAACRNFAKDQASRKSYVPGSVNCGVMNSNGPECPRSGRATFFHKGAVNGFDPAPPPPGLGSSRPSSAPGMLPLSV

[2] = molecular target: T2, EGFP-tagged NDEL1 p.R105Q variant (mouse Ndel1 cDNA) (mouse) (UniProt Q9ERR1)
T2 sequence: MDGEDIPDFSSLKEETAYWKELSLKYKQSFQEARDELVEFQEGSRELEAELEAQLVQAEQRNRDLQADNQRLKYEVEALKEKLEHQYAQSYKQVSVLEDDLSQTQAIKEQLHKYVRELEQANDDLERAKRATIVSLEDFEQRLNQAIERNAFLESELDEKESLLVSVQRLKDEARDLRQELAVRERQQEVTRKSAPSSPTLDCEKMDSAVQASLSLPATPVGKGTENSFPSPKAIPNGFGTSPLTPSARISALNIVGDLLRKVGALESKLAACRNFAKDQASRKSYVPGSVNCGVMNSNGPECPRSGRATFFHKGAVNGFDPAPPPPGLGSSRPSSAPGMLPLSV

[3] = molecular target: T3, EGFP-tagged NDEL1 p.R105W variant (mouse Ndel1 cDNA) (mouse) (UniProt Q9ERR1)
T3 sequence: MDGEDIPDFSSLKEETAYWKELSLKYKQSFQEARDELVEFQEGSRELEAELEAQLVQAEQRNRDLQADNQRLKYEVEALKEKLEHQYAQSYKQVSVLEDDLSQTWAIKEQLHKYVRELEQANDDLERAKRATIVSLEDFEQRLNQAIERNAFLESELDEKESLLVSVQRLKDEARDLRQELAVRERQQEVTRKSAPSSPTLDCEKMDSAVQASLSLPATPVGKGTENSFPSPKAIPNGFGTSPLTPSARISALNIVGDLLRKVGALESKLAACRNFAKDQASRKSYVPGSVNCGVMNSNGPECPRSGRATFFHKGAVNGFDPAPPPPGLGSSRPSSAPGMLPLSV

Measured: binding

B1: LIS1 (protein, UniProt P43034 1-410)
chain: MVLSQRQRDELNRAIADYLRSNGYEEAYSVFKKEAELDVNEELDKKYAGLLEKKWTSVIRLQKKVMELESKLNEAKEEFTSGGPLGQKRDPKEWIPRPPEKYALSGHRSPVTRVIFHPVFSVMVSASEDATIKVWDYETGDFERTLKGHTDSVQDISFDHSGKLLASCSADMTIKLWDFQGFECIRTMHGHDHNVSSVAIMPNGDHIVSASRDKTIKMWEVQTGYCVKTFTGHREWVRMVRPNQDGTLIASCSNDQTVRVWVVATKECKAELREHEHVVECISWAPESSYSSISEATGSETKKSGKPGPFLLSGSRDKTIKMWDVSTGMCLMTLVGHDNWVRGVLFHSGGKFILSCADDKTLRVWDYKNKRCMKTLNAHEHFVTSLDFHKTAPYVVTGSVDQTVKVWECR
binds: all assays above
